Where a name gives a salt, the structure may show the parent alone. Some of the results follow. Most entries show no effect beyond the scatter of the controls.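 Reh is a human leukemia cell line; the read-out is the median γH2AX antibody signal in S-phase cells by flow cytometry, with the score counting standard deviations from the median difference of each paired set of plates. Scores above 2.5 were called candidate hits, while scores below -2 mark compounds that lowered the MK1775-induced damage.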
These compounds were tested on Reh (assay: Z' of S-phase gammaH2AX difference (drug + MK1775 minus drug alone) (Z-score); higher = stronger synergistic S-phase DNA damage with MK1775). Settings: MK1775 concentration 400 nM; first compound 10 µM; 4 h.

Structure (SMILES)	Z' of S-phase gammaH2AX difference (Z-score)
NC(=O)NO [Hydroxyurea] + C=CCn1c(=O)c2cnc(Nc3ccc(N4CCN(C)CC4)cc3)nc2n1-c1cccc(C(C)(C)O)n1 [MK1775]	inactive: -1.58
CNC1(C)C2CCC(C2)C1(C)C (configuration not stated) [Mecamylamine hydrochloride] + C=CCn1c(=O)c2cnc(Nc3ccc(N4CCN(C)CC4)cc3)nc2n1-c1cccc(C(C)(C)O)n1 [MK1775]	inactive: -0.64
CC(C)(Oc1ccc(C2CC2(Cl)Cl)cc1)C(=O)O (configuration not stated) [Ciprofibrate] + C=CCn1c(=O)c2cnc(Nc3ccc(N4CCN(C)CC4)cc3)nc2n1-c1cccc(C(C)(C)O)n1 [MK1775]	inactive: 0
c1ccc2c(-c3cnn4cc(-c5ccc(N6CCNCC6)cc5)cnc34)ccnc2c1 + C=CCn1c(=O)c2cnc(Nc3ccc(N4CCN(C)CC4)cc3)nc2n1-c1cccc(C(C)(C)O)n1 [MK1775]	inactive: -0.846
O=C(O)CCC/C=C\C[C@@H]1[C@@H](/C=C/[C@H](O)C2Cc3ccccc3C2)[C@@H](F)C[C@@H]1O + C=CCn1c(=O)c2cnc(Nc3ccc(N4CCN(C)CC4)cc3)nc2n1-c1cccc(C(C)(C)O)n1 [MK1775]	inactive: -0.13
Cc1[nH]c(/C=C2\C(=O)Nc3ccc(S(=O)(=O)Cc4c(Cl)cccc4Cl)cc32)c(C)c1C(=O)N1CCC[C@@H]1CN1CCCC1 + C=CCn1c(=O)c2cnc(Nc3ccc(N4CCN(C)CC4)cc3)nc2n1-c1cccc(C(C)(C)O)n1 [MK1775]	inactive: -0.784
Nc1nc(Nc2ccc(S(N)(=O)=O)cc2)nn1C(=O)c1c(F)cccc1F + C=CCn1c(=O)c2cnc(Nc3ccc(N4CCN(C)CC4)cc3)nc2n1-c1cccc(C(C)(C)O)n1 [MK1775]	inactive: -0.885
CC(C)c1onc(-c2c(Cl)cccc2Cl)c1COc1ccc(/C=C/c2cccc(C(=O)O)c2)c(Cl)c1 + C=CCn1c(=O)c2cnc(Nc3ccc(N4CCN(C)CC4)cc3)nc2n1-c1cccc(C(C)(C)O)n1 [MK1775]	inactive: 0.134
CCCCC#Cc1nc(N)c2ncn([C@@H]3O[C@H](C(=O)NCC)[C@@H](O)[C@H]3O)c2n1 + C=CCn1c(=O)c2cnc(Nc3ccc(N4CCN(C)CC4)cc3)nc2n1-c1cccc(C(C)(C)O)n1 [MK1775]	inactive: -0.532
CC(CCc1ccc(O)cc1)NCCc1ccc(O)c(O)c1 (configuration not stated) [Dobutamine hydrochloride] + C=CCn1c(=O)c2cnc(Nc3ccc(N4CCN(C)CC4)cc3)nc2n1-c1cccc(C(C)(C)O)n1 [MK1775]	inactive: -1.05
N[C@@H](CCC(=O)N[C@@H](CSN=O)C(=O)NCC(=O)O)C(=O)O [S-Nitrosoglutathione] + C=CCn1c(=O)c2cnc(Nc3ccc(N4CCN(C)CC4)cc3)nc2n1-c1cccc(C(C)(C)O)n1 [MK1775]	inactive: -0.141
O=C1C(Cl)=C(NCCN2CCOCC2)C(=O)c2ncccc21 + C=CCn1c(=O)c2cnc(Nc3ccc(N4CCN(C)CC4)cc3)nc2n1-c1cccc(C(C)(C)O)n1 [MK1775]	inactive: 1.37
O=c1cc(O)cc(/C=C/c2ccc(O)c(O)c2)o1 [Hispidin] + C=CCn1c(=O)c2cnc(Nc3ccc(N4CCN(C)CC4)cc3)nc2n1-c1cccc(C(C)(C)O)n1 [MK1775]	inactive: -0.59
COc1cc2ncnc(Nc3ccc(Oc4ccccc4)cc3)c2cc1OC + C=CCn1c(=O)c2cnc(Nc3ccc(N4CCN(C)CC4)cc3)nc2n1-c1cccc(C(C)(C)O)n1 [MK1775]	inactive: -0.0525
Cn1c(=O)c(F)c(Nc2ccc(I)cc2F)c2c(=O)n(C[C@@H](O)CO)cnc21 + C=CCn1c(=O)c2cnc(Nc3ccc(N4CCN(C)CC4)cc3)nc2n1-c1cccc(C(C)(C)O)n1 [MK1775]	inactive: 0.169
O=c1[nH]c(=O)n([C@H]2C[C@H](O)[C@@H](CO)O2)cc1/C=C/Br [(E)-5-(2-Bromovinyl)-2'-deoxyuridine] + C=CCn1c(=O)c2cnc(Nc3ccc(N4CCN(C)CC4)cc3)nc2n1-c1cccc(C(C)(C)O)n1 [MK1775]	inactive: 0.251
CC(C)N(CCC(=O)c1ccc2ccccc2c1)Cc1ccccc1 + C=CCn1c(=O)c2cnc(Nc3ccc(N4CCN(C)CC4)cc3)nc2n1-c1cccc(C(C)(C)O)n1 [MK1775]	inactive: -0.369
O=C(Nc1cccc(Cl)c1)Nc1ncc(CCNc2ncnc3ccsc23)s1 + C=CCn1c(=O)c2cnc(Nc3ccc(N4CCN(C)CC4)cc3)nc2n1-c1cccc(C(C)(C)O)n1 [MK1775]	inactive: -0.557
COc1ccc(CCCOC(Cn2ccnc2)c2ccc(OC)cc2)cc1 (configuration not stated) + C=CCn1c(=O)c2cnc(Nc3ccc(N4CCN(C)CC4)cc3)nc2n1-c1cccc(C(C)(C)O)n1 [MK1775]	inactive: -0.259

Structure (SMILES)	Z' of S-phase gammaH2AX difference (Z-score)
CCCOC(=O)c1c(-c2ccccc2)nc(CC)c(C(=O)SCC)c1CCC + C=CCn1c(=O)c2cnc(Nc3ccc(N4CCN(C)CC4)cc3)nc2n1-c1cccc(C(C)(C)O)n1 [MK1775]	inactive: 0.509
O=C(NCC1CCCCN1)c1cc(OCC(F)(F)F)ccc1OCC(F)(F)F (configuration not stated) [Flecainide acetate] + C=CCn1c(=O)c2cnc(Nc3ccc(N4CCN(C)CC4)cc3)nc2n1-c1cccc(C(C)(C)O)n1 [MK1775]	inactive: -0.148
COc1cc(N2CCC(N3CCN(C)CC3)CC2)ccc1Nc1ncc(Cl)c(Nc2ccccc2S(=O)(=O)C(C)C)n1 + C=CCn1c(=O)c2cnc(Nc3ccc(N4CCN(C)CC4)cc3)nc2n1-c1cccc(C(C)(C)O)n1 [MK1775]	inactive: -0.997
Cc1nc2c(OCc3ccccc3)cccn2c1CC#N + C=CCn1c(=O)c2cnc(Nc3ccc(N4CCN(C)CC4)cc3)nc2n1-c1cccc(C(C)(C)O)n1 [MK1775]	inactive: 1.09
CCOC(=O)C1=C(C)NC(C)=C(C(=O)OC)C1c1cccc([N+](=O)[O-])c1 (configuration not stated) [Nitrendipine] + C=CCn1c(=O)c2cnc(Nc3ccc(N4CCN(C)CC4)cc3)nc2n1-c1cccc(C(C)(C)O)n1 [MK1775]	inactive: 0.936
CN(C)c1nc(N)c(C(=O)NC(=N)N)nc1Cl [5-(N,N-Dimethyl)amiloride hydrochloride] + C=CCn1c(=O)c2cnc(Nc3ccc(N4CCN(C)CC4)cc3)nc2n1-c1cccc(C(C)(C)O)n1 [MK1775]	inactive: 0.267
O=C(c1ccc(OCCN2CCCCC2)cc1)c1c(-c2ccc(O)cc2)sc2cc(O)ccc12 [Evista (Raloxifene Hydrochloride)] + C=CCn1c(=O)c2cnc(Nc3ccc(N4CCN(C)CC4)cc3)nc2n1-c1cccc(C(C)(C)O)n1 [MK1775]	inactive: 0.0303
O=C(c1ccc(OCCN2CCCCC2)cc1)c1c(-c2ccc(O)cc2)sc2cc(O)ccc12 [Raloxifene hydrochloride] + C=CCn1c(=O)c2cnc(Nc3ccc(N4CCN(C)CC4)cc3)nc2n1-c1cccc(C(C)(C)O)n1 [MK1775]	inactive: -0.534
CC(CN1c2ccccc2Sc2ccccc21)N(C)C (configuration not stated) [Promethazine hydrochloride] + C=CCn1c(=O)c2cnc(Nc3ccc(N4CCN(C)CC4)cc3)nc2n1-c1cccc(C(C)(C)O)n1 [MK1775]	inactive: -0.0922
CNC(=O)c1ccccc1Sc1ccc2c(/C=C/c3ccccn3)n[nH]c2c1 [Axitinib] + C=CCn1c(=O)c2cnc(Nc3ccc(N4CCN(C)CC4)cc3)nc2n1-c1cccc(C(C)(C)O)n1 [MK1775]	inactive: 0.638
COc1ccccc1CNCCCCCCNCCCCCCCCNCCCCCCNCc1ccccc1OC [Methoctramine tetrahydrochloride] + C=CCn1c(=O)c2cnc(Nc3ccc(N4CCN(C)CC4)cc3)nc2n1-c1cccc(C(C)(C)O)n1 [MK1775]	inactive: 1.01
O=C(NC1CCNCC1)c1n[nH]cc1NC(=O)c1c(Cl)cccc1Cl + C=CCn1c(=O)c2cnc(Nc3ccc(N4CCN(C)CC4)cc3)nc2n1-c1cccc(C(C)(C)O)n1 [MK1775]	inactive: -0.999
CC[C@H](Nc1ncnc2[nH]cnc12)c1nc2cccc(F)c2c(=O)n1-c1ccccc1 + C=CCn1c(=O)c2cnc(Nc3ccc(N4CCN(C)CC4)cc3)nc2n1-c1cccc(C(C)(C)O)n1 [MK1775]	inactive: 0.0407
Nn1nnc2ccccc21 [1-Aminobenzotriazole] + C=CCn1c(=O)c2cnc(Nc3ccc(N4CCN(C)CC4)cc3)nc2n1-c1cccc(C(C)(C)O)n1 [MK1775]	inactive: -0.474
CN(C)CCCC1(c2ccc(F)cc2)OCc2cc(C#N)ccc21 (configuration not stated) [Citalopram hydrobromide] + C=CCn1c(=O)c2cnc(Nc3ccc(N4CCN(C)CC4)cc3)nc2n1-c1cccc(C(C)(C)O)n1 [MK1775]	inactive: 1.35
CCCC(CCC)C(=O)O [Valproic acid sodium salt (Sodium valproate)] + C=CCn1c(=O)c2cnc(Nc3ccc(N4CCN(C)CC4)cc3)nc2n1-c1cccc(C(C)(C)O)n1 [MK1775]	inactive: 0.215
COc1ccccc1N1CCN(CCN2C(=O)CC3(CCCC3)CC2=O)CC1 [BMY 7378 dihydrochloride] + C=CCn1c(=O)c2cnc(Nc3ccc(N4CCN(C)CC4)cc3)nc2n1-c1cccc(C(C)(C)O)n1 [MK1775]	inactive: -0.568
CN(C)CCC(c1ccc(Cl)cc1)c1ccccn1 (configuration not stated) [(?)-Chlorpheniramine maleate] + C=CCn1c(=O)c2cnc(Nc3ccc(N4CCN(C)CC4)cc3)nc2n1-c1cccc(C(C)(C)O)n1 [MK1775]	inactive: 0.585

Some of the entries above, reformatted.
CCCCC#Cc1nc(N)c2ncn([C@@H]3O[C@H](C(=O)NCC)[C@@H](O)[C@H]3O)c2n1 + C=CCn1c(=O)c2cnc(Nc3ccc(N4CCN(C)CC4)cc3)nc2n1-c1cccc(C(C)(C)O)n1 [MK1775]
  Z' of S-phase gammaH2AX difference (Z-score): inactive: -0.532
O=c1cc(O)cc(/C=C/c2ccc(O)c(O)c2)o1 [Hispidin] + C=CCn1c(=O)c2cnc(Nc3ccc(N4CCN(C)CC4)cc3)nc2n1-c1cccc(C(C)(C)O)n1 [MK1775]
  Z' of S-phase gammaH2AX difference (Z-score): inactive: -0.59

Reference: the supplement of paper PMC5355238
